# US20040197795A1 (published 2004)
# Protein sequences, listed by entry. Tags and fused reporters are not part of them. Residues count along the entry.
# UniProt P61823, residues 27-150: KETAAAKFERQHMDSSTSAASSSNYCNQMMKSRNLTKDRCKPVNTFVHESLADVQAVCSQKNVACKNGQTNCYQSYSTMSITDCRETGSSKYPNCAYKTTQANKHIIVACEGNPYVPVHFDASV
# Results are given in words; binding and its absence hold for the method and conditions named. Some binding calls cover weakened binding; strength is not graded here.
# Target: RNase A (Ribonuclease A, Sigma R4875) (UniProt P61823)
# Assay: affinity purification on RNase A resin (method of Blackburn 1979), without reducing agents
binder,measurement,value
"""RNasin Plus""-brand RNase inhibitor (recombinant rat-derived RNase inhibitor protein, Promega Pt # N261) (other, UniProt P29315 1-456, looked up) MSLDIQCEQLSDARWTELLPLIQQYQVVRLDDCGLTEVRCKDIRSAIQANPALTELSLRTNELGDAGVGLVLQGLQNPTCKIQKLSLQNCSLTEAGCGVLPDVLRSLSTLRELHLNDNPLGDEGLKLLCEGLRDPQCRLEKLQLEYCNLTATSCEPLASVLRVKPDFKELVLSNNDFHEAGIHTLCQGLKDSACQLESLKLENCGITSANCKDLCDVVASKASLQELDLGSNKLGNTGIAALCSGLLLPSCRLRTLWLWDCDVTAEGCKDLCRVLRAKQSLKELSLAGNELKDEGAQLLCESLLEPGCQLESLWVKTCSLTAASCPHFCSVLTKNRSLFELQMSSNPLGDSGVVELCKALGYPDTVLRVLWLGDCDVTDSGCSSLATVLLANRSLRELDLSNNCMGDNGVLQLLESLKQPSCILQQLVLYDIYWTDEVEDQLRALEEERPSLRIIS",binding,binds
